# Where a name gives a salt, the structure may show the parent alone. Some of the results follow. Most entries show no effect beyond the scatter of the controls.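 Using flow cytometry, the assay measures the median γH2AX antibody signal in S-phase Reh cells (a human leukemia line). Each score is the number of standard deviations from the median difference of paired plate sets. Candidate hits scored above 2.5; compounds scoring below -2 lowered MK1775-induced damage.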
# System: Reh
# Assay: Z' of S-phase gammaH2AX difference (drug + MK1775 minus drug alone) (Z-score); higher = stronger synergistic S-phase DNA damage with MK1775
# Conditions: MK1775 concentration 400 nM; first compound 10 µM; 4 h
row,SMILES,Z' of S-phase gammaH2AX difference (Z-score)
1,C[N+]1(C)[C@@H]2C[C@@H](OC(=O)[C@H](CO)c3ccccc3)C[C@H]1[C@@H]1O[C@@H]12 [(-)-Scopolamine methyl bromide] + C=CCn1c(=O)c2cnc(Nc3ccc(N4CCN(C)CC4)cc3)nc2n1-c1cccc(C(C)(C)O)n1 [MK1775],inactive: -1.35
2,C[C@@H]1O[C@@H](O[C@H]2C[C@@H](O)[C@]3(CO)[C@H]4[C@H](O)C[C@]5(C)[C@@H](C6=CC(=O)OC6)CC[C@]5(O)[C@@H]4CC[C@]3(O)C2)[C@H](O)[C@H](O)[C@H]1O [Ouabain] + C=CCn1c(=O)c2cnc(Nc3ccc(N4CCN(C)CC4)cc3)nc2n1-c1cccc(C(C)(C)O)n1 [MK1775],inactive: -0.505
3,"C[C@@H](N)Cc1cnc[nH]1 [Histamine, R(-)-alpha-methyl-, dihydrochloride] + C=CCn1c(=O)c2cnc(Nc3ccc(N4CCN(C)CC4)cc3)nc2n1-c1cccc(C(C)(C)O)n1 [MK1775]",inactive: 0.644
4,Clc1cc(I)cc(Cl)c1NC1=NCCN1 [p-Iodoclonidine hydrochloride] + C=CCn1c(=O)c2cnc(Nc3ccc(N4CCN(C)CC4)cc3)nc2n1-c1cccc(C(C)(C)O)n1 [MK1775],inactive: -0.085
5,NNC(=O)c1ccc(O)cc1 [4-Hydroxybenzhydrazide] + C=CCn1c(=O)c2cnc(Nc3ccc(N4CCN(C)CC4)cc3)nc2n1-c1cccc(C(C)(C)O)n1 [MK1775],inactive: 1.6
6,COc1ccc(Cc2nccc3cc(OC)c(OC)cc23)cc1OC [Papaverine hydrochloride] + C=CCn1c(=O)c2cnc(Nc3ccc(N4CCN(C)CC4)cc3)nc2n1-c1cccc(C(C)(C)O)n1 [MK1775],inactive: 1.29
7,NCCCP(=O)(O)O [3-Aminopropylphosphonic acid] + C=CCn1c(=O)c2cnc(Nc3ccc(N4CCN(C)CC4)cc3)nc2n1-c1cccc(C(C)(C)O)n1 [MK1775],inactive: -0.254
8,CNCCc1c[nH]c2ccc(O)cc12 [N-omega-Methyl-5-hydroxytryptamine oxalate salt] + C=CCn1c(=O)c2cnc(Nc3ccc(N4CCN(C)CC4)cc3)nc2n1-c1cccc(C(C)(C)O)n1 [MK1775],inactive: -0.825
9,O=C[C@H](Cl)[C@@H](O)[C@H](O)[C@H](O)CO [2-Chloro-2-deoxy-D-glucose] + C=CCn1c(=O)c2cnc(Nc3ccc(N4CCN(C)CC4)cc3)nc2n1-c1cccc(C(C)(C)O)n1 [MK1775],inactive: 0.0735
10,NNC(N)=O [Semicarbazide hydrochloride] + C=CCn1c(=O)c2cnc(Nc3ccc(N4CCN(C)CC4)cc3)nc2n1-c1cccc(C(C)(C)O)n1 [MK1775],inactive: -0.14
11,COC(=O)C1=CCCN(C)C1 [Arecoline hydrobromide] + C=CCn1c(=O)c2cnc(Nc3ccc(N4CCN(C)CC4)cc3)nc2n1-c1cccc(C(C)(C)O)n1 [MK1775],inactive: -0.501
12,C=C(C)[C@H]1Cc2c(ccc3c2O[C@@H]2COc4cc(OC)c(OC)cc4[C@@H]2C3=O)O1 [Rotenone] + C=CCn1c(=O)c2cnc(Nc3ccc(N4CCN(C)CC4)cc3)nc2n1-c1cccc(C(C)(C)O)n1 [MK1775],inactive: -0.509
13,Fc1ccc(C(OCCN2CCN(CCCc3ccccc3)CC2)c2ccc(F)cc2)cc1 + C=CCn1c(=O)c2cnc(Nc3ccc(N4CCN(C)CC4)cc3)nc2n1-c1cccc(C(C)(C)O)n1 [MK1775],inactive: -0.634
14,N[C@@H](CCl)C(=O)O [beta-Chloro-L-alanine hydrochloride] + C=CCn1c(=O)c2cnc(Nc3ccc(N4CCN(C)CC4)cc3)nc2n1-c1cccc(C(C)(C)O)n1 [MK1775],inactive: 0.795
15,CC(N)Cc1c[nH]c2ccc(O)cc12 (stereo not drawn) [alpha-Methyl-5-hydroxytryptamine maleate] + C=CCn1c(=O)c2cnc(Nc3ccc(N4CCN(C)CC4)cc3)nc2n1-c1cccc(C(C)(C)O)n1 [MK1775],inactive: -1.01
16,CN(N=O)c1cc(O)ccc1O [Dephostatin] + C=CCn1c(=O)c2cnc(Nc3ccc(N4CCN(C)CC4)cc3)nc2n1-c1cccc(C(C)(C)O)n1 [MK1775],inactive: 0.415
17,Oc1cc2c(cc1O)[C@H]1c3ccccc3CN[C@@H]1CC2 (racemic) [Dihydrexidine hydrochloride] + C=CCn1c(=O)c2cnc(Nc3ccc(N4CCN(C)CC4)cc3)nc2n1-c1cccc(C(C)(C)O)n1 [MK1775],inactive: 0.202
18,N[C@H](CCCCCP(=O)(O)O)C(=O)O [D(-)-2-Amino-7-phosphonoheptanoic acid] + C=CCn1c(=O)c2cnc(Nc3ccc(N4CCN(C)CC4)cc3)nc2n1-c1cccc(C(C)(C)O)n1 [MK1775],inactive: 0.0969
19,CC(=O)Nc1ccc(OC[C@](C)(O)C(=O)Nc2ccc([N+](=O)[O-])c(C(F)(F)F)c2)cc1 [Andarine (GTX-007)] + C=CCn1c(=O)c2cnc(Nc3ccc(N4CCN(C)CC4)cc3)nc2n1-c1cccc(C(C)(C)O)n1 [MK1775],inactive: 0.18
20,CCCN(CCC)C1CCc2ccc(O)cc2C1 (stereo not drawn) [(?)-7-Hydroxy-DPAT hydrobromide] + C=CCn1c(=O)c2cnc(Nc3ccc(N4CCN(C)CC4)cc3)nc2n1-c1cccc(C(C)(C)O)n1 [MK1775],inactive: 0.318
21,CCCN(CCC)C1CCc2ccc(O)cc2C1 (stereo not drawn) [R-(+)-7-Hydroxy-DPAT hydrobromide] + C=CCn1c(=O)c2cnc(Nc3ccc(N4CCN(C)CC4)cc3)nc2n1-c1cccc(C(C)(C)O)n1 [MK1775],inactive: 1.5
22,O=C1CCCN1CC#CCN1CCCC1 [Oxotremorine sesquifumarate salt] + C=CCn1c(=O)c2cnc(Nc3ccc(N4CCN(C)CC4)cc3)nc2n1-c1cccc(C(C)(C)O)n1 [MK1775],inactive: 0.213
23,CCCCc1ccc(C(=O)O)nc1 [Fusaric acid] + C=CCn1c(=O)c2cnc(Nc3ccc(N4CCN(C)CC4)cc3)nc2n1-c1cccc(C(C)(C)O)n1 [MK1775],inactive: -0.814

# Quoted at random: two records from the list, in no set order.
row,SMILES,Z' of S-phase gammaH2AX difference (Z-score)
16,CN(N=O)c1cc(O)ccc1O [Dephostatin] + C=CCn1c(=O)c2cnc(Nc3ccc(N4CCN(C)CC4)cc3)nc2n1-c1cccc(C(C)(C)O)n1 [MK1775],inactive: 0.415
5,NNC(=O)c1ccc(O)cc1 [4-Hydroxybenzhydrazide] + C=CCn1c(=O)c2cnc(Nc3ccc(N4CCN(C)CC4)cc3)nc2n1-c1cccc(C(C)(C)O)n1 [MK1775],inactive: 1.6

# — the supplement of paper PMC5355238
